Source: paper PMC8855833
These are yes or no findings as the source states them, for the method shown. Binding seen in cells or lysates may run through a third protein. Some entries that bind do so weakly or less than the wild type.

By UniProt entry, the sequences of proteins in these tests, tags left out.
UniProt P33534: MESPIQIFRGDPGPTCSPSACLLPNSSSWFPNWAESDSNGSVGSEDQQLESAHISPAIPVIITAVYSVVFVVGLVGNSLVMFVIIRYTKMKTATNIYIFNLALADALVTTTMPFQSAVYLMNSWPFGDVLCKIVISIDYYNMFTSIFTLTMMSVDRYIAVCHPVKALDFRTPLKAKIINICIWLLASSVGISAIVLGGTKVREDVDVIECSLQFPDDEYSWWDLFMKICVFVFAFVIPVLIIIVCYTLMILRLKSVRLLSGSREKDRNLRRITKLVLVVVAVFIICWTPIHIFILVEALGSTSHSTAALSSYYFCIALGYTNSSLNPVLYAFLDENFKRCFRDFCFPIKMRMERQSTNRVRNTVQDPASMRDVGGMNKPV

Legend:
[1] = target: κ-opioid receptor (mouse (endogenous in DRG)) (UniProt P33534); assay: proximity ligation; Duolink In Situ Red kit on DRG sections or isolated DRG neurons fixed with 4% PFA; rabbit anti-AC3 and mouse anti-KOR-1 antibodies at 4°C overnight; endogenous proteins
[2] = target: κ-opioid receptor (mouse (endogenous in DRG)) (UniProt P33534); assay: co-IP; mouse DRG lysate (300 mM NaCl, 50 mM Tris-HCl, 1% Triton X-100, 10% glycerol); protein G sepharose with mouse anti-KOR-1 antibody, normal mouse IgG as negative control, 4°C overnight; blotted with anti-AC3

binding [1]: binds
binding [2]: binds
B1: type III adenylyl cyclase (enzyme, UniProt Q8VHH7 1-1145)
chain: MPRNQGFSDPEYSAEYSAEYSVSLPSDPDRGVGRTHEISVRNSGSCLCLPRFMRLTFVPESLENLYQTYFKRQRHETLLVLVVFAALFDCYVVVMCAVVFSSDKLAPLMVAGFGLVLDIILFVLCKKGLLPDRVSRKVVPYLLWLLISAQIFSYLGLNFSRAHAASDTVGWQAFFVFSFFITLPLSLSPIVIISVVSCVVHTLVLGVTVAQQQQDELEGMQLLREILANVFLYLCAIIVGIMSYYMADRKHRKAFLEARQSLEVKMNLEEQSQQQENLMLSILPKHVADEMLKDMKKDESQKDQQQFNTMYMYRHENVSILFADIVGFTQLSSACSAQELVKLLNELFARFDKLAAKYHQLRIKILGDCYYCICGLPDYREDHAVCSILMGLAMVEAISYVREKTKTGVDMRVGVHTGTVLGGVLGQKRWQYDVWSTDVTVANKMEAGGIPGRVHISQSTMDCLKGEFDVEPGDGGSRCDYLDEKGIETYLIIASKPEVKKTAQNGLNGSAVPNGAPASSKPSSPALIETKEPNGSAHASGSTSEEAEEQEAQADNPSFPNPRRRLRLQDLADRVVDASEDEHELNQLLNEALLERESAQVVKKRNTFLLTMRFMDPEMETRYSVEKEKQSGAAFSCSCVVLFCTAMVEILIDPWLMTNYVTFVVGEVLLLILTICSMAAIFPRSFPKKLVAFSSWIDRTRWARNTWAMLAIFILVMANVVDMLSCLQYYMGPYNMTAGMELDGGCMENPKYYNYVAVLSLIATIMLVQVSHMVKLTLMLLVTGAVTALNLYAWCPVFDEYDHKRFQEKDSPMVALEKMQVLATPGLNGTDSRLPLVPSKYSMTVMMFVMMLSFYYFSRHVEKLARTLFLWKIEVHDQKERVYEMRRWNEALVTNMLPEHVARHFLGSKKRDEELYSQSYDEIGVMFASLPNFADFYTEESINNGGIECLRFLNEIISDFDSLLDNPKFRVITKIKTIGSTYMAASGVTPDVNTNGFTSSSKEEKSDKERWQHLADLADFALAMKDTLTNINNQSFNNFMLRIGMNKGGVLAGVIGARKPHYDIWGNTVNVASRMESTGVMGNIQVVEETQVILREYGFRFVRRGPIFVKGKGELLTFFLKGRDRPAAFPNGSSVTLPHQVVDNP
